The record followed here is publication PMC5818066.

No constants are given. Whether binding was seen depends on the method and setting. Some entries that bind do so weakly or less than the wild type.

This experiment has as its target NUD-2 (C. elegans NudE/L homolog) (C. elegans) (UniProt O45717). Kind of experiment: two-hybrid; yeast two-hybrid (Matchmaker); bait in pGBKT7, prey in pGADT7; growth on -Leu/-Trp/-His plates selects for the interaction.

B1: NUD-2 (C. elegans NudE/L homolog) (protein, UniProt O45717 1-293)
chain: MDLSEDQIRGLPHHELLGHFLQMREEFNEFQTSSAEIEKMMDSELDDLKTQLKKAETRVQQMTTEQIRNKDRQDDSRVQFAQVEEQLRRENSHLHEQCESQRERIRKLEQRNDVLETSERNKEYLASDLGSKLDHAIEKIAMLESELYERQVAAEEMHRLREEQLRTTERPRLIVEPLRNDPEILPDEPSPGPSKEEFKMSSEDVFMEDVQHHEDVRMEETIAKIDEVRIDDNKNIQEKSQRVSTGTGAGACINRIVKDLMTKVERLDSILSTIRVSNNSSNNNSSHLTTTRA
In the case of B1, the binding entry was “binds”.
